PubChem BioAssay AID1159584 – Peter MacCallum Cancer Centre, 2016
Purpose: 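Genes that CDH1-null MCF10A cells selectively depend on to survive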 (primary screen). Cells: human MCF10A breast epithelial cells, parental and CDH1-null. Knock-down reagent: siRNA against human genes. Measured: 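Cell viability by CellTiter-Glo ATP luminescence, each line scaled to the mean of mock wells across plates, then CDH1-null over parental ratio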. Direction: CDH1-null / parental viability ratio: higher = CDH1-null cells survive relatively better than parental.
Shown is a random part of about 18,000 deposited reagents. Not all columns of the deposit are shown. The record does not give: the amount of reagent, the time to read-out.

| gene knocked down | CDH1-null / parental viability ratio |
| --- | --- |
| ZNF75D (zinc finger protein 75D) | 1.04 |
| RIN1 (Ras and Rab interactor 1) | 0.95 |
| CDKN2B (cyclin dependent kinase inhibitor 2B) | 0.87 |
| OPCML (opioid binding protein/cell adhesion molecule like) | 0.96 |
| ZNF33B (zinc finger protein 33B) | 1.15 |
| SULT1A4 (sulfotransferase family 1A member 4) | 1.12 |
| WDR91 (WD repeat domain 91) | 1.02 |
| EPGN (epithelial mitogen) | 1.43 |
| ZCRB1 (zinc finger CCHC-type and RNA binding motif containing 1) | 0.59 |
| ONECUT1 (one cut homeobox 1) | 0.99 |
| NAV2 (neuron navigator 2) | 2 |
| POU1F1 (POU class 1 homeobox 1) | 0.87 |
| CELA2A (chymotrypsin like elastase 2A) | 1.09 |
| THG1L (tRNA-histidine guanylyltransferase 1 like) | 0.8 |
| RORC (RAR related orphan receptor C) | 1.05 |
| KANSL1 (KAT8 regulatory NSL complex subunit 1) | 0.79 |
| PAFAH1B1 | 1.14 |
| RASSF5 (Ras association domain family member 5) | 1.12 |
| C8orf33 (chromosome 8 open reading frame 33) | 0.83 |
| TSEN15 (tRNA splicing endonuclease subunit 15) | 0.79 |
| GPR107 (G protein-coupled receptor 107) | 1.19 |
| NPTX1 (neuronal pentraxin 1) | 0.98 |
| NDUFA12 (NADH:ubiquinone oxidoreductase subunit A12) | 1 |
| FLYWCH1 (FLYWCH-type zinc finger 1) | 1.18 |
| BTRC | 1.01 |
| CT47A6 (cancer/testis antigen family 47 member A6) | 0.83 |
| COLGALT2 (collagen beta(1-O)galactosyltransferase 2) | 0.82 |
| SUMO4 (small ubiquitin like modifier 4) | 0.79 |

Reformatted: 4 of the entries above
gene knocked down | CDH1-null / parental viability ratio
KANSL1 (KAT8 regulatory NSL complex subunit 1) | 0.79
PAFAH1B1 | 1.14
RASSF5 (Ras association domain family member 5) | 1.12
C8orf33 (chromosome 8 open reading frame 33) | 0.83

The list goes on:
| gene knocked down | CDH1-null / parental viability ratio |
| --- | --- |
| CHRNA6 (cholinergic receptor nicotinic alpha 6 subunit) | 1.33 |
| DUSP22 (dual specificity phosphatase 22) | 1.19 |
| ARAP3 (ArfGAP with RhoGAP domain, ankyrin repeat and PH domain 3) | 1.35 |
| CACNA2D3 | 1.1 |
| UBOX5 (U-box domain containing 5) | 0.96 |
| IL1RAPL2 (interleukin 1 receptor accessory protein like 2) | 0.97 |
| PSMB1 (proteasome 20S subunit beta 1) | 1.37 |
| TOMM20 (translocase of outer mitochondrial membrane 20) | 1.28 |
| SH3BP5L (SH3 binding domain protein 5 like) | 1.27 |
| FBRS (fibrosin) | 0.88 |
| FOXH1 (forkhead box H1) | 1.41 |
| BAK1 (BCL2 antagonist/killer 1) | 1.05 |
| NOP9 (NOP9 nucleolar protein) | 1.23 |
| PFDN5 (prefoldin subunit 5) | 0.83 |
| BATF2 (basic leucine zipper ATF-like transcription factor 2) | 1.07 |
| CCR1 (C-C motif chemokine receptor 1) | 0.85 |
| TMEM171 (transmembrane protein 171) | 1.29 |
| CAND1 (cullin associated and neddylation dissociated 1) | 1.25 |
| PTRH2 (peptidyl-tRNA hydrolase 2) | 0.8 |
| ZNF18 (zinc finger protein 18) | 1.28 |
| HAUS3 (HAUS augmin like complex subunit 3) | 1.23 |
| IRX1 (iroquois homeobox 1) | 0.97 |
| DEFB104A (defensin beta 104A) | 1.31 |
| LHFPL1 (LHFPL tetraspan subfamily member 1) | 1.02 |
| B9D1 (B9 domain containing 1) | 0.95 |
| NFATC3 (nuclear factor of activated T cells 3) | 1.2 |
| IFNGR1 (interferon gamma receptor 1) | 1.13 |
| TRIP6 (thyroid hormone receptor interactor 6) | 0.85 |
| TGDS (TDP-glucose 4,6-dehydratase) | 0.6 |
| GFAP (glial fibrillary acidic protein) | 0.95 |
| HIF1A (hypoxia inducible factor 1 subunit alpha) | 0.82 |
| DIP2C (DIP2 acetate--CoA ligase C (putative)) | 0.94 |
| CLCA2 (chloride channel accessory 2) | 1.19 |
| PLA1A (phospholipase A1 member A) | 0.85 |
| DDX27 (DEAD-box helicase 27) | 0.83 |
| TBC1D3C (TBC1 domain family member 3C) | 1.01 |
| SREBF2 (sterol regulatory element binding transcription factor 2) | 1.02 |
| DNAJB7 (DnaJ heat shock protein family (Hsp40) member B7) | 0.78 |
| AURKC (aurora kinase C) | 0.95 |
| FBXO22 (F-box protein 22) | 0.98 |
